# Laboratory results: PubChem BioAssay AID1439 (NMMLSC, 2008)
# Amino acid sequences for entries named in this document (tags omitted).
# UniProt P09471, whole entry, looked up: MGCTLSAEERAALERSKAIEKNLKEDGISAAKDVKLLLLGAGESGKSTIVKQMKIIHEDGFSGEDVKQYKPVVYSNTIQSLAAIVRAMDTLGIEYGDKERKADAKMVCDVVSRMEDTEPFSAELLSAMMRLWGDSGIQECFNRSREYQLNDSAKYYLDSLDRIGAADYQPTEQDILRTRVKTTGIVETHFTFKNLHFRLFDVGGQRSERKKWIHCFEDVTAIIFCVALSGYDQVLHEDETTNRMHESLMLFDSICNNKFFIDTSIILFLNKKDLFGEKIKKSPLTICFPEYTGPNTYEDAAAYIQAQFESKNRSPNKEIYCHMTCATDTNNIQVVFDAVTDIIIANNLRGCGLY
# Among all 220,000 compounds or so, about 770 (0.35%) were called active. Inconclusive means that the source gave no clear call. Such entries were picked first, then a sample of the others. Cut-off read from the data, not from the text of the source: active = binding response below about 49% or above about 150%; inconclusive = no clear call, values can overlap the other calls; inactive = in between.
# Target: Guanine nucleotide-binding protein G(o) subunit alpha (Homo sapiens) (UniProt P09471)
# Assay: RGS7-Galphao binding modulators, primary screen, biochemical, multiplexed bead flow cytometry (AID 1439);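 note: fluorescent Galphao held in activated GDP-AlF4 state binding bead-coupled RGS7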
# Conditions: at 10 µM, actives lie on both sides
row,SMILES,binding response (% of control)
1,O=C(CSc1nnc2n1CCCCC2)Nc1ccc(N2CCOCC2)cc1,inconclusive: 76.5%
2,O=[N+]([O-])c1cccc(COc2ncnc3cc([N+](=O)[O-])ccc23)c1,inconclusive: 81%
3,Cc1cccc(-[n+]2c(-c3cccc(Br)c3)[nH]c3nc4ccccc4nc32)c1,inconclusive: 46.5%
4,CCOC(=O)c1ccc(NC(=O)Nc2ncccc2C)cc1,inconclusive: 108%
5,C=CCNC(=S)NCCCCC1NC(=S)N(CC=C)C1=O (stereo unspecified),inactive: 129%
6,Cc1nc(CS(=O)(=O)c2ccccn2)sc1C(=O)NNC(=O)c1c(F)cccc1Cl,inconclusive: 121%
7,FC(F)(F)c1ccc(-c2nc(=S)[nH][nH]2)cc1,inconclusive: 89.6%
8,O=C(O)CCCCCNC(=O)Cn1nnc2ccccc2c1=O,inconclusive: 35.6%
9,Cn1cnnc1SCC(=O)Nc1ccc(OC(F)F)cc1,inconclusive: 123%
10,COc1ccc(CNC(=O)CCSCc2cccc(Cl)c2)cc1,active: 177% [activator]
11,O=Cc1cn(-c2ccccc2)nc1-c1ccncc1,inconclusive: 89%
12,Cc1ccc(S(=O)(=O)N2CCCCC2)cc1NC(=O)Cn1c(=O)cnc2ccccc21,inconclusive: 103%
13,COC(=O)c1ccsc1NC(=O)CN1C(=O)CCC1=O,inconclusive: 90%
14,CN(C)CCCN=Cc1c(O)n(Cc2ccc3c(c2)OCO3)c(=O)c2ccccc12,inconclusive: 110%
15,CN(C)CC(O)COC(c1ccc(Cl)cc1)c1ccc(Cl)cc1 (stereo unspecified),inconclusive: 102%
16,O=C(O)c1ccccc1/C=N/NC(=O)c1cc(-c2ccco2)nc2ccccc12,inconclusive: -142%
17,NC(=O)c1ccc(NC(=O)CSc2nnc(-c3ccccn3)n2N)cc1,inactive: 98.8%
18,O=C(Nc1ccccc1)NC1CCCCNC1=O (stereo unspecified),inconclusive: 67.6%
19,O=C1OCC/C1=C\c1ccc(O)cc1,inconclusive: 72.7%
20,COc1ccc(N(Cc2cc3ccc(C)cc3[nH]c2=O)C(=O)C2CCCO2)cc1 (stereo unspecified),inconclusive: 93.5%
21,O=C(Cn1ccc(=O)[nH]c1=O)Nc1ccc(C(=O)O)c(O)c1,inconclusive: 77.8%
22,CCN(C(=O)COC(=O)c1nn(-c2ccccc2)c(=O)c2ccccc12)C1CCS(=O)(=O)C1 (stereo unspecified),inconclusive: 107%
23,N#CC(C(=S)Nc1ccccc1)c1nc2ccccc2[nH]1 (stereo unspecified),inconclusive: 102%

# Some of the entries so far, as tab-separated lines.
row	SMILES	binding response (% of control)
1	O=C(CSc1nnc2n1CCCCC2)Nc1ccc(N2CCOCC2)cc1	inconclusive: 76.5%
2	O=[N+]([O-])c1cccc(COc2ncnc3cc([N+](=O)[O-])ccc23)c1	inconclusive: 81%
3	Cc1cccc(-[n+]2c(-c3cccc(Br)c3)[nH]c3nc4ccccc4nc32)c1	inconclusive: 46.5%
4	CCOC(=O)c1ccc(NC(=O)Nc2ncccc2C)cc1	inconclusive: 108%
5	C=CCNC(=S)NCCCCC1NC(=S)N(CC=C)C1=O (stereo unspecified)	inactive: 129%
6	Cc1nc(CS(=O)(=O)c2ccccn2)sc1C(=O)NNC(=O)c1c(F)cccc1Cl	inconclusive: 121%
7	FC(F)(F)c1ccc(-c2nc(=S)[nH][nH]2)cc1	inconclusive: 89.6%
8	O=C(O)CCCCCNC(=O)Cn1nnc2ccccc2c1=O	inconclusive: 35.6%
9	Cn1cnnc1SCC(=O)Nc1ccc(OC(F)F)cc1	inconclusive: 123%
10	COc1ccc(CNC(=O)CCSCc2cccc(Cl)c2)cc1	active: 177% [activator]
11	O=Cc1cn(-c2ccccc2)nc1-c1ccncc1	inconclusive: 89%
12	Cc1ccc(S(=O)(=O)N2CCCCC2)cc1NC(=O)Cn1c(=O)cnc2ccccc21	inconclusive: 103%
13	COC(=O)c1ccsc1NC(=O)CN1C(=O)CCC1=O	inconclusive: 90%
14	CN(C)CCCN=Cc1c(O)n(Cc2ccc3c(c2)OCO3)c(=O)c2ccccc12	inconclusive: 110%
15	CN(C)CC(O)COC(c1ccc(Cl)cc1)c1ccc(Cl)cc1 (stereo unspecified)	inconclusive: 102%
16	O=C(O)c1ccccc1/C=N/NC(=O)c1cc(-c2ccco2)nc2ccccc12	inconclusive: -142%
17	NC(=O)c1ccc(NC(=O)CSc2nnc(-c3ccccn3)n2N)cc1	inactive: 98.8%
18	O=C(Nc1ccccc1)NC1CCCCNC1=O (stereo unspecified)	inconclusive: 67.6%
19	O=C1OCC/C1=C\c1ccc(O)cc1	inconclusive: 72.7%
20	COc1ccc(N(Cc2cc3ccc(C)cc3[nH]c2=O)C(=O)C2CCCO2)cc1 (stereo unspecified)	inconclusive: 93.5%

# Going on with the list:

row,SMILES,binding response (% of control)
1,CCCc1nnc(SCC(=O)O)n1CC,inconclusive: 74.2%
2,Cc1[nH][nH]c(=O)c1[C@@H](c1ccccc1[N+](=O)[O-])C(C#N)C#N,inconclusive: 116%
3,CN(C)S(=O)(=O)c1ccc(NC(=O)CNc2cc(S(=O)(=O)N3CCCC3)ccc2OCC(F)(F)F)cc1,inactive: 102%
4,O=C(COc1ccc(Cl)cc1[N+](=O)[O-])N1CCCCCC1,inconclusive: 115%
5,Cc1ccc(NC(=O)N(CCC(=O)O)Cc2ccccc2)cc1,inconclusive: 521%
6,C/C(Cc1ccccc1)=N\NC(=O)CNC(=O)Cc1ccc(Cl)cc1,inconclusive: 110%
7,CSCCC(NC(=O)c1cccc([N+](=O)[O-])c1)C(=O)O (stereo unspecified),inactive: 113%
8,CCCc1cc(=O)[nH]c(SCC(=O)Nc2ccc([N+](=O)[O-])cc2C#N)n1,inconclusive: 156%
9,COc1ccc(C(=O)Cn2c(=N)n(C)c3ccccc32)cc1,inconclusive: 100%
10,O=[N+]([O-])c1ccc(SCCc2ccccn2)cc1,inconclusive: 107%
11,COc1ccc(/C(CC2OC(=O)c3ccccc32)=N\NC(N)=O)cc1 (stereo unspecified),inconclusive: 70.8%
12,COc1ccc(NC(=O)CN2CCN(CC(=O)Nc3ccc4c(c3)OCO4)CC2)cc1,inactive: 95.6%
13,O=c1[nH]c(/C=C/c2ccc(OC(F)F)cc2)nc2c1cnn2-c1ccccc1,inconclusive: 86.7%
14,COc1cccc(-n2c([S-])c(C(=O)Nc3ccc(C(F)(F)F)cc3)[n+]3ccccc23)c1,inconclusive: 115%
15,CC(=O)Oc1ccc(N2C(=O)[C@@H]3[C@H](C2=O)[C@H]2c4ccccc4C=NN2[C@@H]3C(C)=O)cc1,inconclusive: 109%
16,c1ccc2sc(SCSc3nc4ccccc4s3)nc2c1,inconclusive: 98.5%
17,O=C(CSc1nc2ccccc2s1)N/N=C/c1cc([N+](=O)[O-])ccc1O,inconclusive: 158%
18,CCN(CC)S(=O)(=O)c1cc(NC(=O)COC(=O)c2sc3ccccc3c2Cl)ccc1C,inactive: 101%
19,CCCCC#Cc1cncc(C(=O)N/N=C/c2ccccc2)c1,inconclusive: 117%
20,O=C(CS(=O)(=O)c1ccccc1)Nc1ccc(N2CCOCC2)cc1,inactive: 96.8%
21,COCC(=O)N(c1ccccc1)C(C)C(=O)OC (stereo unspecified),inactive: 103%
22,CC(=O)NC(C)c1nc2ccccc2n1CC(=O)NC(C)CCc1ccccc1 (stereo unspecified),inconclusive: 101%
23,CCN(C(=O)c1cnc(OC)cc1C(F)(F)F)c1ccc(Cl)cc1,inconclusive: 133%

row,SMILES,binding response (% of control)
1,CCOC(=O)c1sc(-c2ccc(C(F)(F)F)cc2)nc1O,inconclusive: 121%
2,CCN=C1SC(CC(=O)Nc2ccccc2)C(=O)N1CC (stereo unspecified),inactive: 102%
3,Nc1ncc(-c2ccccc2)c(-c2ccc(OCc3ccccc3)cc2O)n1,inconclusive: 95.5%
4,COc1ccc(/C=C/C(=O)OCc2nc3ccccc3c(=O)[nH]2)c(OC)c1,inconclusive: 80.3%
5,O=C(/C=C/c1ccccc1)C1=C(O)C(=O)N(CCO)C1c1cccc([N+](=O)[O-])c1 (stereo unspecified),inconclusive: 96.9%
6,Cc1nn(C)c(Cl)c1CN1CCN(CCC(C)C)C(CCO)C1 (stereo unspecified),inconclusive: 106%
7,CC(C)(C)c1cc(-c2ccccc2)no1,inconclusive: -67.6%
8,O=[N+]([O-])c1cc(C(F)(F)F)ccc1N1CCN(S(=O)(=O)c2ccc3c(c2)CCCC3)CC1,inactive: 102%
9,O=C1NC(=O)/C(=C/c2cccc([N+](=O)[O-])c2)N1,inconclusive: 286%
10,CC1CN(C(=O)Nc2cccc(C(F)(F)F)c2)CC(C)O1 (stereo unspecified),inconclusive: 137%
11,CCCC[C@@H]1CNC(=S)N1CC1CCCCC1,inconclusive: 97.1%
12,COc1ccccc1N1CCN(S(=O)(=O)c2cc(C(F)(F)F)cc(C(F)(F)F)c2)CC1,inconclusive: 106%
13,CNC(=O)Nc1ccc(S(N)(=O)=O)cc1,inconclusive: 134%
14,NS(=O)(=O)c1ccc(NC(=O)COC(=O)CCc2ccccc2)cc1,inconclusive: 85.3%
15,CC1(C)NC(=O)N(CCCCOc2ccccc2[N+](=O)[O-])C1=O,inconclusive: 82.3%
16,O=C(NCc1nnc(SCC(=O)N2CCC(Cc3ccccc3)CC2)o1)c1ccco1,inconclusive: 140%
17,COc1ccccc1OCc1nc(-c2cccc([N+](=O)[O-])c2)no1,inconclusive: 86.2%
18,O=C(COC(=O)/C=C/C(=O)OCC(=O)Nc1ccccc1F)Nc1ccccc1F,inconclusive: 91.2%
19,Cc1cc(-c2ccccc2)nc(Cl)c1C#N,inactive: 99.3%
20,C[C@H]1CCC[C@@]2(O[C@@H](CCO)C[C@@H](O)[C@@H]2O)O1,inconclusive: 85.4%
21,CC(=O)Nc1cccc(OCCCNC(=O)C2CCC2)c1,inconclusive: 75.5%
22,CCc1cc(SC#N)ccc1N,inconclusive: 84.4%
23,O=C(NCCSC1CCCCC1)c1ccccc1,inconclusive: 116%

row,SMILES,binding response (% of control)
1,COc1ccccc1NS(=O)(=O)c1cc(NC(=O)c2cnccn2)ccc1N1CCOCC1,inconclusive: 106%
2,O=C(NCc1cccnc1)c1nn2cccnc2c1Cl,inactive: 99.3%
3,O=[N+]([O-])c1cccc(C(=S)N2CCN(c3ccc(F)cc3)CC2)c1,inconclusive: 116%
4,O=C(NNC1=NS(=O)(=O)c2ccccc21)c1ccccc1,inconclusive: 98.6%
5,O=C(Oc1ccc[nH]c1=O)c1cccc(Cl)c1,inconclusive: 87.5%
6,Cc1nc(N)[nH]c(=O)c1Oc1cccc(C(F)(F)F)c1,inconclusive: 92.9%
7,c1ccc(-c2nnc(CN3CCN(c4ccccc4)CC3)o2)cc1,inconclusive: 109%
8,CNC(=S)Nc1cccc(S(=O)(=O)NC2=NCCC2)c1,inactive: 102%
9,COc1ccc(OC)c(NC2=C(Cl)C(=O)N(Cc3ccccc3)C2=O)c1,inconclusive: 100%
10,COC(=O)CCCC1=CC2=CC(=O)C(C)(OC(=O)c3cccs3)C(=O)C2=CN1C1CC1 (stereo unspecified),inconclusive: 96.6%
11,COC(=O)C[n+]1cccc2ccccc21,inconclusive: 88.8%
12,COc1ccc(-c2nc3nc(SC)nn3cc2C)cc1F,inconclusive: 73.2%
13,NS(=O)(=O)c1ccc(NC(=O)c2ccc3nccnc3c2)cc1,inconclusive: 102%
14,O=C(CN1C(=O)NC2(CCCc3ccccc32)C1=O)Nc1cccc(S(=O)(=O)N2CCCCC2)c1 (stereo unspecified),inactive: 103%
15,CCOC(=O)C(Cc1ccccc1)c1ccnc2nc(N)nn12 (stereo unspecified),inconclusive: 99.9%
16,O=C(CSC(=S)N1CCOCC1)Nc1ncc2c(n1)CCCC2=O,inconclusive: 196%
17,Cc1ccc2nc(-c3ccc(N)cc3)sc2c1,inconclusive: 153%
18,O=C(NCc1ccc2c(c1)OCO2)C1CCCN1S(=O)(=O)c1ccc(F)cc1 (stereo unspecified),inconclusive: 91.7%
19,Cc1cc(NS(=O)(=O)c2ccc(NC(=O)/C=C/c3ccco3)cc2)nc(C)n1,inconclusive: 107%
20,CCOc1ccc(OCc2ccc(C(=O)OCc3ccccn3)o2)cc1,inactive: 98.9%
21,O=c1[nH]nc(SCCS(=O)(=O)c2ccc(F)cc2)n1-c1ccc2c(c1)OCCO2,inconclusive: 49.9%
22,CC(=O)c1ccc(C(=O)N2CCc3c([nH]c4ccccc34)C2c2cccc(C)n2)s1 (stereo unspecified),inconclusive: 108%
